From US10351500B2, “Method of using of dihydro-resveratrol or its stilbenoid derivatives and/or chemical variants as antimicrobial agents” (Hong Kong Baptist University, priority 2015, dated 2019)
Some entries share one result that the patent states for a list of compounds.

Key:
B16 melanocytes = experiment: cellular melanin content in B16 melanocytes; format: cell-based; details: B16, α-MSH 100 nM, 24 hours treatment
A375 melanocytes = experiment: cellular melanin content in A375 melanocytes; format: cell-based, human; details: A375, α-MSH 100 nM, 24 hours treatment
[1] = target: T1, cellular tyrosinase in B16 melanocytes (Mus musculus, UniProt P11344); experiment: cellular tyrosinase activity in B16 melanocytes; format: cell-based; details: B16, α-MSH 100 nM, 24 hours treatment
T1 construct: The relative activity of cellular tyrosinase in melanocytes is calculated; endogenous in cells; host or cells: B16 melanocytes (Shanghai Institutes for Biological Science, Chinese Academy of Sciences), stimulated with alpha-MSH
T1 sequence (P11344 19-533): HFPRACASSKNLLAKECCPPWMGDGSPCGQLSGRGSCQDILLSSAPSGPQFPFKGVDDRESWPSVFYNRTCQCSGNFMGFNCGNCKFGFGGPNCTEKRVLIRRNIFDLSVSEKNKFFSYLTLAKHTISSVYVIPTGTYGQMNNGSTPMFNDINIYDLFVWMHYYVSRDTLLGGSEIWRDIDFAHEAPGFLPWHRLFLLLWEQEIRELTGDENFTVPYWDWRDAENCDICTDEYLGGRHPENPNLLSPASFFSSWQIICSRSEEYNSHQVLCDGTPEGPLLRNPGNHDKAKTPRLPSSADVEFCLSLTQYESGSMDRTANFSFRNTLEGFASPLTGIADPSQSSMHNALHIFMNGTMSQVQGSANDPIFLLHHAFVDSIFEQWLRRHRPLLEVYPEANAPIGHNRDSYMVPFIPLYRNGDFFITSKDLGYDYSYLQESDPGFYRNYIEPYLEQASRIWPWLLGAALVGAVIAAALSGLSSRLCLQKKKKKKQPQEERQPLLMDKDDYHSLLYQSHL

[2] = target: T2, cellular tyrosinase in A375 melanocytes (Homo sapiens, UniProt P14679); experiment: cellular tyrosinase activity in A375 melanocytes; format: cell-based; details: A375, α-MSH 100 nM, 24 hours treatment
T2 construct: The relative activity of cellular tyrosinase in melanocytes is calculated; endogenous in cells; host or cells: A375 cells (American Type Culture Collection), stimulated with alpha-MSH
T2 sequence (P14679 19-529): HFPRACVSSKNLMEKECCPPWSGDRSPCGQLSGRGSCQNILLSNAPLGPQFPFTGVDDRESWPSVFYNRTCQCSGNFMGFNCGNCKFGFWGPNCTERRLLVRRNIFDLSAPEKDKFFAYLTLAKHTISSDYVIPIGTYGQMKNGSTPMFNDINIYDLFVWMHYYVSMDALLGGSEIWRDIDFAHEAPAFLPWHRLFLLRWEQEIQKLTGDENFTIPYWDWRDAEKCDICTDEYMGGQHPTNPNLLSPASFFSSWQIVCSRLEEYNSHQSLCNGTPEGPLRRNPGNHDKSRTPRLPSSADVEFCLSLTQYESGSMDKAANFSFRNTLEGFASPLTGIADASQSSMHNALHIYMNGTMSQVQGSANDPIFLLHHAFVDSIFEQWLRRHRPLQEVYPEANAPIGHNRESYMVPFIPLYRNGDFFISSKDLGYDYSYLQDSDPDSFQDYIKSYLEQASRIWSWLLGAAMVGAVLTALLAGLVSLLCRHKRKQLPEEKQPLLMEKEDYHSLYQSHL

Row | SMILES | cellular melanin content (B16 melanocytes) | cellular melanin content (A375 melanocytes) | tyrosinase activity [1] | tyrosinase activity [2]
1 | O=C(Cc1ccccc1)Oc1ccc(CCc2cc(OC(=O)Cc3ccccc3)cc(OC(=O)Cc3ccccc3)c2)cc1 [DR10] | reduced | reduced | inhibited | inhibited
2 | Oc1ccc(CCc2cc(O)cc(O)c2)cc1 [Dihydro-resveratrol, trans-3,5,4′-trihydroxybibenzyl] | reduced | reduced | inhibited | inhibited
